Assay results reported in article PMC5129563.
These are yes or no findings as the source states them, for the method shown. Binding seen in cells or lysates may run through a third protein. Some results given as binding are weak or reduced against the parent protein; the word gives no strength.

Tests used:
[1] = molecular target: T1, ɛ‐sarcoglycan (mouse, endogenous; all isoforms caught by the pan anti‐ɛ‐sarcoglycan antibody) (mouse (endogenous in brain and lung)) (UniProt O70258); experiment: co-IP; immunoaffinity purification with the pan anti‐ɛ‐sarcoglycan antibody from mouse brain and lung solubilized in RIPA buffer, Western blot
T1 sequence: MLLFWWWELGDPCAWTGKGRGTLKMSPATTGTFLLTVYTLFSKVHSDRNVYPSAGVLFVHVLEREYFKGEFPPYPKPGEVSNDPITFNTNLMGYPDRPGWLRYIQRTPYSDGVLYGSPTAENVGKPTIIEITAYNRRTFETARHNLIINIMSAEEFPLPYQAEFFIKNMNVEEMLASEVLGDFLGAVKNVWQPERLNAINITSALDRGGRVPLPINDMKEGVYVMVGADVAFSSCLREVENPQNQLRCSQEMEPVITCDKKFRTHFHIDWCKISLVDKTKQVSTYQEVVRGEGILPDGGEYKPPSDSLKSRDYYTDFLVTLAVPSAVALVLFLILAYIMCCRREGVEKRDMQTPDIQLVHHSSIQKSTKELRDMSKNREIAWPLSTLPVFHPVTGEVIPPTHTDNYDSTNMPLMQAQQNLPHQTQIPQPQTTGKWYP

[2] = molecular target: T1, ɛ‐sarcoglycan (mouse, endogenous; all isoforms caught by the pan anti‐ɛ‐sarcoglycan antibody) (mouse (endogenous in brain and lung)); experiment: co-IP; immunoaffinity purification with the pan anti‐ɛ‐sarcoglycan antibody from mouse brain and lung solubilized in 1% digitonin, Western blot

binding [2]: binds
B1: β‐dystroglycan (mouse, endogenous) (protein, UniProt Q62165 652-893)
chain: SIVVEWTNNTLPLEPCPKEQIIGLSRRIADENGKPRPAFSNALEPDFKALSIAVTGSGSCRHLQFIPVAPPSPGSSAAPATEVPDRDPEKSSEDDVYLHTVIPAVVVAAILLIAGIIAMICYRKKRKGKLTLEDQATFIKKGVPIIFADELDDSKPPPSSSMPLILQEEKAPLPPPEYPNQSMPETTPLNQDTVGEYTPLRDEDPNAPPYQPPPPFTAPMEGKGSRPKNMTPYRSPPPYVPP
binding [1]: no binding (condition: tissue extracted in RIPA buffer)
